Some results were stated once for a whole list of compounds, not compound by compound. For at least one compound, name, drawing or mass did not settle the structure.
Tested on: Hh pathway (Gli-RE reporter, activated by SMO agonist SAG)
Assay: Gli-luciferase reporter assay in SAG-treated NIH 3T3 Shh-light II cells
Type: cell-based
Protocol: FIG. 4. Effect of active natural compounds identified by the pharmacophore screening in a luciferase assay, where the gene reporter was Gli1 and the pathway was activated by the SAG molecule, a potent SMO agonist. Natural compounds were tested at three different concentrations (1, 10 and 20 μM) and their activity was compared to that of cyclopamine, the natural compound reference inhibitor of the Hedgehog pathway, which was tested at the same doses (1, 10 and 20 μM). On both graphs the activity of cyclopamine is reported as reference standard. (A) cyclopamine, 2,4,5,3′,4′-penta-Ome chalcone and Auriculasin; (B) cyclopamine, Martinoside, Jaceidin, 2,4,5,3′,4′-penta-Ome chalcone, 3,4-di-MDO-2′,4′,5′-tri-Ome dihydrochalcone.
FIG. 6. Dose-response curve of Glabrescione B in SAG (Smoothened Agonist, 200 nM) treated NIH 3T3 Shh-light II (Shh-LII) cells. […]
FIG. 19. Effect of derivatives NT8, NT9, NT10, NT11, NT12, NT13, NT14 and NT15 on the Hedgehog pathway, measured at 5 μM dose in a luciferase assay where the gene reporter was Gli1 and the pathway was activated by the SAG molecule, a potent SMO agonist. […]
The ability of Glabrescione B to suppress Hh signaling was assessed in a cellular context of Hh pathway induction. To this end, the antagonist properties of Glabrescione B were determined in Shh Light II (ATCC, cat. # CRL-2795), a murine fibroblast NIH 3T3 cell line. […]

SMILES | inhibition of Hh pathway in luciferase assay (at 30 μM, moderately active class) | inhibition of Hh pathway in luciferase assay (at 5 μM, highly active class)
COc1ccc(C(=O)C=Cc2c(OC)cc(OC)c(OC)c2OC)cc1OC [2,3,4,6,3′,4′-hexa-OMe Chalcone] | up to 30% | –
COc1cc(OC)c(OC)cc1C=CC(=O)c1ccc(OC)c(OC)c1 [2,4,5,3′,4′-penta-OMe Chalcone] | – | more than 50%
